Results from patent US8138307.
These are yes or no findings as the source states them, for the method shown. Binding seen in cells or lysates may run through a third protein. Some results given as binding are weak or reduced against the parent protein; the word gives no strength. For some assays here: Tags and fused reporters may be left off the sequences shown. Each block holds one substance with its values, some of them ahead of it.

Sequences of proteins named here, by UniProt entry; tags and fusion partners are left off. A change or cut given only in a name is not applied to a line headed by its entry.
UniProt P21707: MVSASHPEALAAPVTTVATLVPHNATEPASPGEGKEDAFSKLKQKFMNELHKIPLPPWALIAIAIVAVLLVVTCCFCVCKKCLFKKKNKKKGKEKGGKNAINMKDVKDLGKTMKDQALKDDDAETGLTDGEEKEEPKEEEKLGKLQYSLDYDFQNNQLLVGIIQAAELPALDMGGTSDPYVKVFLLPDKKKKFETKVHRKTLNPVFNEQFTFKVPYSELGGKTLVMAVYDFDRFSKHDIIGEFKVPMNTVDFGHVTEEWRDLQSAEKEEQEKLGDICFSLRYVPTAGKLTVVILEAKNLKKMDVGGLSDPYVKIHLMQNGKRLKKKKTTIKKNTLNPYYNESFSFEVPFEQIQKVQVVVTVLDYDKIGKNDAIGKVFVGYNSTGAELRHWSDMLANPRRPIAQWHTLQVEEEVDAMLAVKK
UniProt Q9BT88: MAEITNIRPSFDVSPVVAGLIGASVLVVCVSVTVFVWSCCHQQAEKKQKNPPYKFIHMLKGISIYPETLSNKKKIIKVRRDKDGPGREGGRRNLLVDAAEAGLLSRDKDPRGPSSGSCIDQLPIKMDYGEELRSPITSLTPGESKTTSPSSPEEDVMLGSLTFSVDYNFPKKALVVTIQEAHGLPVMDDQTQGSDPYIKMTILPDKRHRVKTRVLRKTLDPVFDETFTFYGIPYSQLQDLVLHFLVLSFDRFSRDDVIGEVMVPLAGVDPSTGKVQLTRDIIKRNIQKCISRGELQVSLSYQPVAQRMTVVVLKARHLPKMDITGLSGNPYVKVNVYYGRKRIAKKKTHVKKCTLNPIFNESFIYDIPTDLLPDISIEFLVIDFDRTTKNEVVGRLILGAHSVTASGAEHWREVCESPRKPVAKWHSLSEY
UniProt P21579: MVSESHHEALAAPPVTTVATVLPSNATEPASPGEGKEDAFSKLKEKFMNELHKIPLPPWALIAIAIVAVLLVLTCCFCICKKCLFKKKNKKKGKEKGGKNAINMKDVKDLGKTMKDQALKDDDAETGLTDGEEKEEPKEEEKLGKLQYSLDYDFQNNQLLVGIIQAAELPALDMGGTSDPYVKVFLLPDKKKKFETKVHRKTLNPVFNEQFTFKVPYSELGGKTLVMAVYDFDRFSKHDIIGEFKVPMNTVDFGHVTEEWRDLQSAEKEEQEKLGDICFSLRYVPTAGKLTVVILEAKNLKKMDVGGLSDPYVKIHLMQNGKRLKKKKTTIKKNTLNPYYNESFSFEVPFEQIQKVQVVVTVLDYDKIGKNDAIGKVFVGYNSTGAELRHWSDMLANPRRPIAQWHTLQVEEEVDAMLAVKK
UniProt Q9JK66: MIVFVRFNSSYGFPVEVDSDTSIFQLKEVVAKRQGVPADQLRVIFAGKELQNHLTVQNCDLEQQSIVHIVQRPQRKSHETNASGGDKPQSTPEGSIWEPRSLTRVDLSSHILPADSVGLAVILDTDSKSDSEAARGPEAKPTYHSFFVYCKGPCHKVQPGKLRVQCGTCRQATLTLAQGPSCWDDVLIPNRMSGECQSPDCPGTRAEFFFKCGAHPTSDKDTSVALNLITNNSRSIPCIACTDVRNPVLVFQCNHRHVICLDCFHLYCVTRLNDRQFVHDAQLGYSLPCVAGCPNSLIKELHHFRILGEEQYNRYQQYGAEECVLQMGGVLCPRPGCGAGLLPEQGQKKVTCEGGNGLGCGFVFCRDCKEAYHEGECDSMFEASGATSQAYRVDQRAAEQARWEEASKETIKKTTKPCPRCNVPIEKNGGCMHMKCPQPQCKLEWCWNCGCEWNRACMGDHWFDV
UniProt O60260: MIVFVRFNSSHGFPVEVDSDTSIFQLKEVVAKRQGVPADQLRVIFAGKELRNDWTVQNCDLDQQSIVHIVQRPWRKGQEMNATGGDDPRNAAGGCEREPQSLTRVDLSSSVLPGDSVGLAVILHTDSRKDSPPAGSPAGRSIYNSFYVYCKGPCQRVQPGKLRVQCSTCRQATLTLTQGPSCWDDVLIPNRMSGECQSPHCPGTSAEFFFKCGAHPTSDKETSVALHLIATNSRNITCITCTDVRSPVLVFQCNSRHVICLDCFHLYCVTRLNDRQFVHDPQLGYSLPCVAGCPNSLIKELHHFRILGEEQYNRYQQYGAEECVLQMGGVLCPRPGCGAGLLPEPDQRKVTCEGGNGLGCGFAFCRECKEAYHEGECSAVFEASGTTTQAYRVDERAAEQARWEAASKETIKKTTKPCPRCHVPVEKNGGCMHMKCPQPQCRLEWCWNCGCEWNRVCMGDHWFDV

Assays:
[1] = target: endogenous synaptotagmin 1 in PC12 cells (UniProt P21707); assay: co-immunoprecipitation from PC12 extract with mouse anti-syt1
[2] = target: endogenous synaptotagmin XI in human cerebral cortex extract (human) (UniProt Q9BT88); assay: co-immunoprecipitation from human cerebral cortex extract, both directions
[3] = target: endogenous synaptotagmin XI in human cerebral cortex extract (human) (UniProt Q9BT88); assay: co-immunoprecipitation from human cerebral cortex extract with rabbit anti-parkA
[4] = target: T1, full length synapsin-like protein (SLP), GFP fusion (human); assay: co-immunoprecipitation
T1 sequence: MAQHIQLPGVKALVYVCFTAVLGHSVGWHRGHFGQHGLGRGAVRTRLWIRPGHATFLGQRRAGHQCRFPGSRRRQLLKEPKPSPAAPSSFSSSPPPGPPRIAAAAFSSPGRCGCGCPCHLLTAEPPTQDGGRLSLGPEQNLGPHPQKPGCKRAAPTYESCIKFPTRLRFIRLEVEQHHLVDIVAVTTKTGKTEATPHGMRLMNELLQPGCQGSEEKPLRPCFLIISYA

[5] = target: myc-syt1 (syt1 cDNA in the pCMV-myc expression plasmid) (human) (UniProt P21579); assay: co-immunoprecipitation with anti-HA-agarose from 293T extracts, anti-myc blot

- binding [1]: binds
Substance: endogenous parkin in PC12 cells (from UniProt Q9JK66 1-465) (enzyme)

- binding [2]: binds
- binding [3]: binds
Substance: endogenous parkin in human cerebral cortex extract (from UniProt O60260 1-465) (enzyme)

- binding [4]: binds
- binding [5]: binds
Substance: hemaglutinin-parkin (HA-parkin), full-length wild type (from UniProt O60260 1-465) (enzyme)
